Source: article PMC11549365
These are yes or no findings as the source states them, for the method shown. In cells and extracts the contact can be indirect. A result given as binding can be weak or reduced; the word gives no strength. Sequences can lack the tags named with a protein.

B1: GFP-SEPTIN12 (protein, UniProt A0A2R8VJU7 1-357)
chain: MDERRSPSPCSSRPSSPRTPPNEMFGPVGIEAVLDQLRIKAMKTGFEFNIMVVGQSGLGKSTMVNTLFKSKVWQSTEPNLDVPMPQTLELHSVTHVIEEKGLKLKLTVTDTPGFGDQINNDKCWDPILSYINQQYEQYLQEELLITRQRHIPDTRVHCCVYFVPPTGHCLRPLDIEFLRRLCRTVNVVPVIARADSLTIEERDAFRSRIQQNLKTHCIDVYPQKCFDEDVNDRLLNSKIREQIPFAVVGADREHIVNGRCVLGRKTKWGIIEVENMAHCEFLLLRDLLIRSHLQDLKDITHNVHYENYRVLRLNESHVLPRGPGWVNLAPVSPGQLMAPGPGKVRKRANKDTKDEEC
B2: GFP-SEPTIN2 (protein, UniProt P42208 1-361)
chain: MSKQQPTQFINPETPGYVGFANLPNQVHRKSVKKGFEFTLMVVGESGLGKSTLINSLFLTDLYPERIIPGAAEKIERTVQIEASTVEIEERGVKLRLTVVDTPGYGDAINCRDCFKTIISYIDEQFERYLHDESGLNRRHIIDNRVHCCFYFISPFGHGLKPLDVAFMKAIHNKVNIVPVIAKADTLTLKERERLKKRILDEIEEHSIKIYHLPDAESDEDEDFKEQTRLLKASIPFSVVGSNQLIEAKGKKVRGRLYPWGVVEVENPEHNDFLKLRTMLITHMQDLQEVTQDLHYENFRSERLKRGGRKVENEDMNKDQILLEKEAELRRMQEMIARMQAQMQMQMQGGDSDSGALGQHV
B3: GFP-SEPTIN7 (protein, UniProt O55131 1-436)
chain: MSVSARSAAAEERSVNCGTMAQPKNLEGYVGFANLPNQVYRKSVKRGFEFTLMVVGESGLGKSTLINSLFLTDLYSPEYPGPSHRIKKTVQVEQSKVLIKEGGVQLLLTIVDTPGFGDAVDNSNCWQPVIDYIDSKFEDYLNAESRVNRRQMPDNRVQCCLYFIAPSGHGLKPLDIEFMKRLHEKVNIIPLIAKADTLTPEECQQFKKQIMKEIQEHKIKIYEFPETDDEEENKLVKKIKDRLPLAVVGSNTIIEVNGKRVRGRQYPWGVAEVENGEHCDFTILRNMLIRTHMQDLKDVTNNVHYENYRSRKLAAVTYNGVDNNKNKGQLTKSPLAQMEEERREHVAKMKKMEMEMEQVFEMKVKEKVQKLKDSEAELQRRHEQMKKNLEAQHKELEEKRRQFEEEKANWEAQQRILEQQNSSRTLEKNKKKGKIF

Molecular target: ARMC12 (Armadillo Repeat Containing 12) (not stated (human or mouse cDNA cloned))
Assay: co-IP; HEK-293T cells co-transfected with the two plasmids, lysed after 24 h (50 mM HEPES pH 7.4, 150 mM NaCl, 2 mM MgCl2, 1 mM EGTA, 0.1% Triton X-100); cleared lysate incubated with FLAG beads overnight at 4 °C, washed three times; western blot with anti-FLAG and anti-GFP

Row | binding | Binder
1 | binds | B1
2 | binds | B2
3 | binds | B3
